No constants are given. Whether binding was seen depends on the method and setting. Binding seen in cells or lysates may run through a third protein. Some results given as binding are weak or reduced against the parent protein; the word gives no strength.

By UniProt entry, the sequences of proteins in these tests, tags left out. Where a name states a change or a piece, a line headed by the entry shows the natural chain unless it says otherwise.
UniProt P60953: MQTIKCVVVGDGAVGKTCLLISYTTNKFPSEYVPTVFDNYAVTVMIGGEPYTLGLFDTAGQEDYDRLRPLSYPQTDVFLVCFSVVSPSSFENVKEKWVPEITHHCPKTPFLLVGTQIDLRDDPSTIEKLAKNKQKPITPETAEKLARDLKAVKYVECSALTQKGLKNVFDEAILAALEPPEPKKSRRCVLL
UniProt P46940: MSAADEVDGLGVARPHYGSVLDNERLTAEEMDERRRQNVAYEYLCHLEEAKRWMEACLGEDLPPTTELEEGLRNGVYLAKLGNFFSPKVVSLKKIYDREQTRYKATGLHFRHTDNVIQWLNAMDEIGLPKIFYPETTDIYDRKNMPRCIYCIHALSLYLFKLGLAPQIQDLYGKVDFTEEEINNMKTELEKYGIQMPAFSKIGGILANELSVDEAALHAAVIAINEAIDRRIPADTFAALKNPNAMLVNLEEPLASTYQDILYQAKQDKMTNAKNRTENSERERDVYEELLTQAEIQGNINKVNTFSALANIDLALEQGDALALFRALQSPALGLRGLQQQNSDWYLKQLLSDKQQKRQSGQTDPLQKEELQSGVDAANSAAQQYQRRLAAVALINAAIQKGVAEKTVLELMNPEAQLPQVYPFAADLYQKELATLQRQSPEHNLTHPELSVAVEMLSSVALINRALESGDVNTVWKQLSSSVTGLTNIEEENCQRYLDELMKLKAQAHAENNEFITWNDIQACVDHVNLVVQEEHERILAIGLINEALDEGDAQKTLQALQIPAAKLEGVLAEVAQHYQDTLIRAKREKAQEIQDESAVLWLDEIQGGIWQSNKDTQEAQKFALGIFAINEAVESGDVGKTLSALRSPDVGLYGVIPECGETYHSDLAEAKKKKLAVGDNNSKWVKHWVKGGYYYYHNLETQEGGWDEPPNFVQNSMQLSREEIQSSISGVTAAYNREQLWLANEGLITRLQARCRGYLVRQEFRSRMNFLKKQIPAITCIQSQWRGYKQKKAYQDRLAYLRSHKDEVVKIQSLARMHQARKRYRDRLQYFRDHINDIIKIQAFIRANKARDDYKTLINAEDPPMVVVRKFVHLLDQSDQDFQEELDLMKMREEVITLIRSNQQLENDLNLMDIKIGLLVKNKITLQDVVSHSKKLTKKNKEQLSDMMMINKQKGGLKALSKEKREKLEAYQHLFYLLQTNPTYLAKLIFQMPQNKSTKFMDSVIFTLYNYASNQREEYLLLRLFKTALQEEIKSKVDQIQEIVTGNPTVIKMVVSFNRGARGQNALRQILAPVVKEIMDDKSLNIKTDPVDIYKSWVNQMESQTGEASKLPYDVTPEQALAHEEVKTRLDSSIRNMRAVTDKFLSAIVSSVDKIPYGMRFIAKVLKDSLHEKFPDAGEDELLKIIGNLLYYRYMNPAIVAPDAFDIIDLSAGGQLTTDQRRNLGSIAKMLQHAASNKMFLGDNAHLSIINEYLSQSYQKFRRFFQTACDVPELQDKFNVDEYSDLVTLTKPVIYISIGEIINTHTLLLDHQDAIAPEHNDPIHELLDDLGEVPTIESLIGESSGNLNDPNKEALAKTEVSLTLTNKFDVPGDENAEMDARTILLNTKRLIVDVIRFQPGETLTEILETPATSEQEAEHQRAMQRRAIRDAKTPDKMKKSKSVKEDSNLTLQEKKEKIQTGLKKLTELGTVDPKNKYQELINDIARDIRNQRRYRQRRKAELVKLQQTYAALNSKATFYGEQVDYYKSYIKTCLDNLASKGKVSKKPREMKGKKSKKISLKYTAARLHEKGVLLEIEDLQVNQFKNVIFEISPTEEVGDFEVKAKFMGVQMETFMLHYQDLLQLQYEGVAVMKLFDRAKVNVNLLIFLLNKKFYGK

For test [1], the target named is FLAG-tagged constitutively active Cdc42 (Cdc42G12V) (UniProt P60953). Nature of the test: co-IP; FLAG-Cdc42 expressing U87MG cells lysed in immunoprecipitation buffer (150mM NaCl, 50mM HEPES, 10% glycerol, 1% Triton X-100, 2mM EDTA); anti-FLAG conjugated magnetic beads, 4°C over night; washed with ice-cold PBS; immunoblotting.
The target of test [2] is FLAG-tagged dominant negative Cdc42 (Cdc42T17N) (UniProt P60953). Described as above.

Regarding “IQ-domain GTPase-activating protein 1 (IQGAP1) (from UniProt P46940 1-1657)”, the binding result in test [1] is given as “binds”; in test [2] it was “no binding”.

The values above are taken from paper PMC5302965.
